Values as published with doi:10.1371/journal.pone.0140310, rounded.

Drugs:
SU6656 (2000 nM): CN(C)S(=O)(=O)c1ccc2c(c1)/C(=C/c1cc3c([nH]1)CCCC3)C(=O)N2
tamatinib (2000 nM): COc1cc(Nc2ncc(F)c(Nc3ccc4c(n3)NC(=O)C(C)(C)O4)n2)cc(OC)c1OC
YM155 (2 nM): COCC[n+]1c2c(n(Cc3cnccn3)c1C)C(=O)c1ccccc1C2=O
dasatinib (20 nM): Cc1nc(Nc2ncc(C(=O)Nc3c(C)cccc3Cl)s2)cc(N2CCN(CCO)CC2)n1
JZL184 (5000 nM): O=C(Oc1ccc([N+](=O)[O-])cc1)N1CCC(C(O)(c2ccc3c(c2)OCO3)c2ccc3c(c2)OCO3)CC1
stibogluconate (10000 nM): O=C(O)[C@@H]1[O][Sb](=[O])([O][Sb]2(=[O])[O][C@H]([C@H](O)CO)[C@H](O)[C@H](C(=O)O)[O]2)[O][C@H]([C@H](O)CO)[C@@H]1O (stereo partly shown)
A-769662 (10000 nM): N#Cc1c(O)c2c(-c3ccc(-c4ccccc4O)cc3)csc2[nH]c1=O
tozasertib (30 nM): Cc1cc(Nc2cc(N3CCN(C)CC3)nc(Sc3ccc(NC(=O)C4CC4)cc3)n2)n[nH]1
enzastaurin (4000 nM): Cn1cc(C2=C(c3cn(C4CCN(Cc5ccccn5)CC4)c4ccccc34)C(=O)NC2=O)c2ccccc21

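Human melanoma cell lines in 1,536-well plates were treated with a pair of drugs for 72 h, then fixed, stained and imaged. Each value is the cleaved-PARP-positive fraction of nuclei relative to DMSO-treated wells, in %, so that 100 equals the control and higher values mean more apoptosis. Concentrations were fixed for each drug; these are the higher of two levels. These are primary screening values without error estimates. Basal and induced levels differ widely between cell lines.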 An unselected part of the screen is shown. A dash means that no value is listed here.

| Drugs | UACC-62 | UACC-257 | WM451Lu | WM3619 | A375 | SK-MEL-5 | RVH-421 | A2058 |
|---|---|---|---|---|---|---|---|---|
| tozasertib + A-769662 | 74.5 | 55.4 | 132 | 89.4 | 67.1 | 51.7 | 36.5 | 97.2 |
| YM155 + dasatinib | 370 | 1350 | 593 | 118 | 172 | 465 | 138 | 1290 |
| stibogluconate + YM155 | 43.7 | 890 | 207 | 120 | 251 | 634 | 58.9 | 382 |
| stibogluconate + tozasertib | 51.7 | 61.8 | 98.4 | 85.1 | 126 | 106 | 93.1 | 342 |
| dasatinib + enzastaurin | 330 | 98.0 | 191 | 77.6 | 156 | 233 | 2800 | 271 |
| JZL184 + SU6656 | 395 | 102 | 274 | 186 | 43.0 | 94.0 | 39.2 | 373 |
| SU6656 + YM155 | 98.7 | 702 | 311 | 98.4 | - | 552 | 141 | 337 |
| JZL184 + enzastaurin | 536 | 66.0 | 201 | 101 | 224 | 48.9 | 315 | 222 |
| YM155 + tozasertib | 203 | 2340 | 564 | 253 | 39.7 | 4060 | 29.3 | 1490 |
| tozasertib + enzastaurin | 183 | 46.8 | 47.3 | 133 | 148 | 212 | 72.4 | 255 |
| dasatinib + SU6656 | 141 | 89.3 | 103 | 182 | - | 245 | 76.8 | 195 |
| dasatinib + tamatinib | 213 | 100 | 224 | 128 | - | 269 | 385 | 270 |
| A-769662 + tamatinib | 116 | 48.1 | 130 | 261 | 86.9 | 101 | 227 | 148 |
| tozasertib + JZL184 | 82.4 | 34.9 | 33.3 | 235 | 94.8 | 44.0 | 185 | 94.3 |
| YM155 + JZL184 | 157 | 557 | 438 | 180 | 418 | 1840 | 52.6 | 1700 |
| enzastaurin + SU6656 | 173 | 74.0 | 308 | 123 | - | 149 | 170 | 167 |
| tamatinib + stibogluconate | 137 | 36.2 | 375 | 111 | - | 129 | 74.1 | 187 |
| A-769662 + dasatinib | 101 | 48.8 | 77.2 | 140 | 204 | 83.0 | 50.2 | 142 |
| stibogluconate + A-769662 | 103 | 24.9 | 64.3 | 104 | 107 | 95.4 | 110 | 107 |
| tozasertib + dasatinib | 785 | 35.6 | 201 | 152 | 364 | 338 | 212 | 368 |
| tamatinib + YM155 | 179 | 2730 | 346 | 151 | - | 3220 | 47.7 | 1000 |
| JZL184 + stibogluconate | 158 | 25.0 | 40.6 | 75.3 | 218 | 51.1 | 43.8 | 149 |
| tozasertib + SU6656 | 106 | 38.6 | 94.6 | 145 | - | 41.3 | 64.6 | 111 |
| YM155 + A-769662 | 203 | 403 | 53.7 | 93.1 | 83.4 | 143 | 273 | 367 |
| enzastaurin + A-769662 | 206 | 51.4 | 136 | 97.5 | 86.3 | 60.3 | 127 | 239 |
| SU6656 + A-769662 | 182 | 20.8 | 89.9 | 143 | 56.6 | 134 | 124 | 80.5 |
| stibogluconate + enzastaurin | 157 | 18.9 | 40.4 | 85.5 | 99.6 | 105 | 48.6 | 144 |
| YM155 + enzastaurin | 336 | 1530 | 783 | 125 | 156 | 3380 | 124 | 922 |
| tozasertib + tamatinib | 105 | 111 | 108 | 140 | - | 546 | 111 | 213 |
| enzastaurin + tamatinib | 278 | 152 | 461 | 123 | - | 405 | 427 | 125 |

Some entries from above, unchanged:

Drugs,UACC-62,UACC-257,WM451Lu,WM3619,A375,SK-MEL-5,RVH-421,A2058
dasatinib + SU6656,141,89.3,103,182,-,245,76.8,195
stibogluconate + YM155,43.7,890,207,120,251,634,58.9,382
tozasertib + JZL184,82.4,34.9,33.3,235,94.8,44.0,185,94.3